Screen size: about 300,000 compounds; about 3,700 (1.2%) were called active. Inconclusive results, whose numbers are uncertain, are shown with a selection of clear calls. The call rests on the fitted dose curve; tested in HEK293 cells. Potencies beside an inconclusive call are fits to weak or partial responses and may not hold up.
Assay: qHTS for Inhibitors of binding or entry into cells for Lassa Virus; further: nearly all actives have a fitted effect of over 50% in size
Conditions: Lassa virus pseudotype entry inhibition, cell reporter; activity change, negative = inhibition: at 37.9 µM (top of the series) unless noted
With `Cc1cc(C)c2nc(NC(=O)CN3C(=O)NC4(CCCC4)C3=O)sc2c1` the Potency was inconclusive: 12.6 µM [inhibitor, partial curve]. For `COc1cc(CN(C)Cc2ccccc2)cc(OC)c1O`, the “activity change, negative = inhibition” value was inactive: -4.56%. With `CC(C)c1ccc(/C=C(\C#N)c2nc(-c3ccc(O)cc3)cs2)cc1` the “activity change, negative = inhibition” value was inactive: 4.5% [at 46.1 µM]. For `CCc1nnc(NC(=O)CSc2nc3c([nH]c4ccccc43)c(=O)n2-c2ccc(OC)cc2)s1`, the Potency was inconclusive: 31.6 µM [inhibitor, single point]. With `Cc1nc(C(=O)NNC(=O)c2ccccc2Cl)c(C(F)(F)F)o1` the Potency was inconclusive: 12.6 µM [inhibitor, partial curve, poor fit]. In the case of `CCOC(=O)c1c(C)oc2nc(C)nc(Nc3cc(C)ccc3OC)c12`, the Potency is reported as inconclusive: 35.5 µM [activator, single point]. In the case of `CN(C)c1ccc(N2C(=O)CC(c3ccccc3)CC2=O)cc1`, the Potency is reported as inconclusive: 1.26 µM [inhibitor, single point]. In the case of `CN(C(=O)COC(=O)c1ccccc1C(=O)N1CCN(c2ccccc2)CC1)c1ccccc1`, the Potency is reported as inconclusive: 35.5 µM [inhibitor, single point]. In the case of `CCOc1ccc(N(CC(=O)NCC2CCCO2)S(=O)(=O)c2ccc(Cl)cc2)cc1` (stereo unspecified), the Potency is reported as inconclusive: 29.1 µM [inhibitor, single point]. For `COc1ccc(C(=O)/C=C/NCc2ccc(C)cc2)cc1`, the Potency was inconclusive: 35.5 µM [inhibitor, single point]. For `CCn1nc(C)cc1C(=O)N1CCCC(N2CCN(c3ccccc3OC)CC2)C1` (stereo unspecified), the Potency was inconclusive: 35.5 µM [inhibitor, partial curve, poor fit]. With `FC(F)Oc1ccc(NC(=S)NCc2ccccc2)cc1Cl` the “activity change, negative = inhibition” value was inactive: -15.1%. In the case of `Cc1nn2c(-c3ccc(Cl)cc3)nnc2s1`, the “activity change, negative = inhibition” value is reported as inactive: -6.62%. For `CC(C)c1nc2ccc(NC(=O)C34CC5CC(CC(C5)C3)C4)cc2[nH]1`, the “activity change, negative = inhibition” value was inactive: 20.1%. For `N/C(=N\OC(=O)c1ccc2ccccc2c1)c1cccc([N+](=O)[O-])c1`, the “activity change, negative = inhibition” value was inactive: 7.8%. For `COc1ccc(C(=O)CC(=O)C(=O)Nc2cc(C)ccc2C)cc1`, the “activity change, negative = inhibition” value was inactive: -11.1% [at 46.1 µM]. For `COc1ccc(S(=O)(=O)NNC(=O)c2csc(-n3nc(C)cc3C(F)(F)F)n2)cc1OC`, the “activity change, negative = inhibition” value was inactive: -5.38%. For `COc1ccc(N2CC(C(=O)O)CC2=O)cc1` (stereo unspecified), the Potency was inconclusive: 0.259 µM [activator, full curve, poor fit]. With `Cc1ccc(C(=O)CSc2nc(-c3ccccc3)ccc2C#N)cc1` the Potency was inconclusive: 3.16 µM [inhibitor, partial curve, poor fit]. In the case of `Cc1ccc(S(=O)(=O)N2CCN(C(=O)N3CCOCC3)CC2)cc1C`, the Potency is reported as inconclusive: 1.26 µM [inhibitor, single point]. With `Cc1oc(-c2ccc(Cl)cc2)nc1CN1CCCC(C(=O)NCc2ccco2)C1` (stereo unspecified) the “activity change, negative = inhibition” value was inactive: -0.953%. In the case of `CC(C)[C@H]1CC[C@@H](C)C(C(=O)c2ccccc2)C1=O` (stereo partly specified), the Potency is reported as inconclusive: 29.1 µM [activator, single point]. With `Cc1cccc(N(C)S(=O)(=O)c2nnc(NC(=O)C3CCCCC3)s2)c1` the Potency was inconclusive: 0.562 µM [inhibitor, full curve, poor fit]. For `Cc1ccc(C(=O)NCCc2nnc3ccc(SCC(=O)Nc4ccccc4C)nn23)cc1`, the Potency was inconclusive: 12.6 µM [inhibitor, single point]. For `CCOC(=O)N1CCC(NC(=O)c2ccc3c(c2)N(Cc2ccc(Cl)cc2)C(=O)c2ccccc2S3=O)CC1` (stereo unspecified), the “activity change, negative = inhibition” value was inactive: -23.6% [at 46.1 µM]. For `Cc1ccc(N2CC(C(=O)N3CCC(C(=O)Nc4nnc(C(C)C)s4)CC3)CC2=O)cc1` (stereo unspecified), the “activity change, negative = inhibition” value was inactive: 7.44%. For `COc1cc(C(=O)Nc2ccc(S(=O)(=O)N3CCc4ccccc43)cc2)cc(OC)c1OC`, the “activity change, negative = inhibition” value was inactive: -19.3%. In the case of `O=C(CSc1nc2ccccc2nc1Cc1ccccc1)N1CCCc2ccccc21`, the Potency is reported as inconclusive: 8.91 µM [inhibitor, partial curve, poor fit]. For `CCN1CCN(c2ccc(S(=O)(=O)N3CCOCC3)cc2NC(=O)CCC(C)C)CC1`, the “activity change, negative = inhibition” value was inactive: 17.2%. With `CCc1cc2c(=O)n(Cc3ccco3)c(SCC(=O)N3CCCc4ccccc43)nc2s1` the Potency was inconclusive: 14.6 µM [inhibitor, partial curve]. With `CCOC(=O)c1c(Nc2cccc(C)c2)nnc(-c2ccccc2)c1-c1ccccc1` the Potency was inconclusive: 3.16 µM [inhibitor, partial curve, poor fit]. For `O=C(/C=C/c1ccnc2ccccc12)c1cccs1`, the Potency was inconclusive: 11.2 µM [inhibitor, partial curve, poor fit]. With `O=C(COC(=O)CNC(=O)c1ccc(Cl)cc1Cl)NC1CCCCCCC1` the Potency was inconclusive: 10 µM [activator, single point]. For `CC(C)=CC(=O)Nc1nnc(-c2cccnc2)s1`, the Potency was inconclusive: 2.06 µM [activator, partial curve, poor fit]. For `Cn1nccc1C(=O)NC1CCN(Cc2ccccc2)CC1`, the Potency was inconclusive: 14.1 µM [activator, single point]. For `CCc1cccc(NC(=O)COc2cc(=O)n(CC)c3ccccc23)c1`, the Potency was inconclusive: 35.5 µM [activator, single point]. For `COc1ccccc1NC(=S)NC(NC(=O)C(C)C)C(Cl)(Cl)Cl` (stereo unspecified), the “activity change, negative = inhibition” value was inactive: -11.2%. For `CC(C)(C)c1ccc(C(=O)NNC(=S)NCc2ccco2)cc1`, the Potency was inconclusive: 10 µM [inhibitor, partial curve, poor fit]. For `Cc1ccccc1NC(NC(=O)c1cccs1)C(Cl)(Cl)Cl` (stereo unspecified), the “activity change, negative = inhibition” value was inactive: -17.1%. For `C/C(Cn1nnc([N+](=O)[O-])n1)=N\NC(=O)c1ccc(C)cc1`, the Potency was inconclusive: 29.1 µM [inhibitor, single point]. With `OC1CCN(c2c3c(nc4cc(-c5ccc(Cl)cc5)nn24)CCC3)CC1` the “activity change, negative = inhibition” value was inactive: -11.8%. In the case of `COc1ccc(-c2nc3c(c(=O)c4ccccc4n3C)c(=O)n2Cc2ccccc2)cc1`, the “activity change, negative = inhibition” value is reported as inactive: 8.07%. For `CCc1c(CN2CCN(c3cccc(C)c3)C(C)C2)csc1C` (stereo unspecified), the Potency was inconclusive: 1.78 µM [activator, partial curve, poor fit]. With `O=C(NCc1ccccc1)c1ccc(CS(=O)(=O)c2ccccc2)o1` the “activity change, negative = inhibition” value was inactive: -5.13%. In the case of `O=C(Nc1ccc2snnc2c1)N1CCCCC1`, the “activity change, negative = inhibition” value is reported as inactive: 1.86%. With `CCc1ccc(NC(=O)CC2C(=O)N(c3ccc(Cl)cc3)C(=O)N2C2CCCC2)cc1` (stereo unspecified) the Potency was inconclusive: 35.5 µM [inhibitor, single point].

Reference: PubChem BioAssay AID540256 (National Center for Advancing Translational Sciences (NCATS), 2011)
On the % scale 0 is the no-effect control and ±100 the full control effect; potency means the concentration at half of the fitted maximal effect.
